About 6,200 (1.8%) of roughly 340,000 compounds were called active. This list was built around the results that the source calls inconclusive (neither active nor inactive); the mix of calls is not that of the screen. Calls follow the shape of the dose curve; as a rule, active = well fitted activation curve with a large enough effect; inconclusive = small, poorly fitted or top-dose-only effect; inactive = no such curve, though single readings can be large or run the other way. Where the call is inconclusive, the potency comes from a doubtful curve fit.
Experiment: A quantitative high throughput screen for small molecules that induce DNA re-replication in SW480 colon adenocarcinoma cells. Also: nearly all actives have a fitted effect of over 55% in size. As to re-replication activation: % of control where 0% means no effect.
Conditions: Hoechst DNA content imaging, 48 h; re-replication activation: at 46.1 µM (top of the series)
Procedure, shortened: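 Compounds, transferred as 23 nL by pin tool, were incubated with cells for 48 hr; DNA content per nucleus was then quantified by Hoechst staining and fluorescence plate imaging.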
Potency is read from the fitted curve at half-maximal effect.

Row | SMILES | Potency | re-replication activation
1 | Cn1c(CCN2CCCCC2)nc2cc(NC(=O)COc3ccc([N+](=O)[O-])cc3)ccc21 | inconclusive: 23.1 µM [activator, partial curve, poor fit] | –
2 | COc1cccc(C(=O)Nc2nnc(S(=O)(=O)N3CCOCC3)s2)c1 | inconclusive: 29.1 µM [activator, single point] | –
3 | Cc1ncc(CO)c2c1Oc1nc(-c3ccccc3)nc(SCC(=O)Nc3cccc(O)c3)c1C2 | inconclusive: 20.6 µM [activator, single point] | –
4 | Cc1ccc(NC(=O)CN2C(=O)NC(C)(C3CC3)C2=O)c([N+](=O)[O-])c1 (stereo unspecified) | inconclusive: 29.1 µM [activator, partial curve, poor fit] | –
5 | COc1cc(/C=C(\C#N)C(=O)NCc2cccs2)ccc1O | inconclusive: 6.51 µM [activator, single point] | –
6 | CC(C)Cc1nnc(NC(=O)C2CCN(C(=O)c3ccc(Cl)cc3)CC2)s1 | – | inactive: 2.01%
7 | Oc1ccc(-c2csc(-c3cccnc3)n2)cc1O | inconclusive: 29.1 µM [activator, partial curve, poor fit] | –
8 | O=C1/C(=C/Nc2ccc3c(c2)OCO3)CCc2ccccc21 | inconclusive: 29.1 µM [activator, partial curve, poor fit] | –
9 | CCc1nc2n(n1)C(O)c1cc([N+](=O)[O-])ccc1S2 (stereo unspecified) | – | inactive: -9.65%
10 | O=C(COC(=O)c1ccccc1Br)NCCC1=CCCCC1 | inconclusive: 14.6 µM [activator, single point] | –
11 | O=C(Nc1ccc2oc(-c3ccc(Cl)c(Cl)c3)nc2c1)c1ncn[nH]1 | inconclusive: 13 µM [activator, partial curve, poor fit] | –
12 | Cc1nn(-c2ccccc2)c(C)c1C(=O)OCc1ccc(C#N)cc1 | – | inactive: 1.41%
13 | O=C(CCl)N1c2ccccc2Sc2c1ccc1ccccc21 | inconclusive: 29.1 µM [activator, single point] | –
14 | O=C(c1ccc(S(=O)(=O)N2CCCCCC2)cc1)N(c1ccccn1)C1CCCCC1 | – | inactive: 7.75%
15 | C=C1C(=O)O[C@H]2C[C@]3(C)C([C@@H](OC(=O)/C(C)=C/C)[C@H]12)[C@](C)(O)CC[C@H]3O (stereo partly specified) | – | inactive: 18%
16 | CCN(C[C@H]1N[C@@](Cc2ccccc2)(C(=O)OC)[C@H]2C(=O)N(C)C(=O)[C@@H]12)S(=O)(=O)c1ccc(OC(F)(F)F)cc1 | inconclusive: 29.1 µM [activator, single point] | –
17 | COc1ccc(-n2ncc3c2CC(C)(C)CC3NC(=O)CCn2nc(C)cc2C)cc1 (stereo unspecified) | – | inactive: -11.7%
18 | CCCCn1c(-c2ccsc2)nc2c1c(=O)[nH]c(=O)n2CCC | – | inactive: -2.4%
19 | O=C(N/N=C/c1ccccc1O)c1cccc(C(F)(F)F)c1 | inconclusive: 0.651 µM [activator, full curve, poor fit] | –
20 | NC(=O)c1ccc(NC(=O)COC(=O)CNC(=O)c2sc3ccccc3c2Cl)cc1 | inconclusive: 4.11 µM [activator, single point] | –
21 | C=CCNC(=O)NC(=O)COC(=O)C(C)Oc1ccc(Cl)cc1Cl (stereo unspecified) | – | inactive: 0.158%
22 | O=C(Nc1cccc(NC(=O)c2ccc(-c3ccc(Br)cc3)o2)c1)c1ccco1 | – | inactive: -0.217%

Row | SMILES | Potency | re-replication activation
23 | O=C(CSc1nnc(Cc2cccs2)n1C1CCCCC1)N1CCCc2ccccc21 | inconclusive: 0.366 µM [activator, full curve, poor fit] | –
24 | C=CCOc1ccc(CN(C)C(=O)CNC(=O)c2ccc(-c3ccccc3)cc2)cc1 | inconclusive: 29.1 µM [activator, single point] | –
25 | COc1cc(/C=C(\C#N)C(=O)Nc2cc(C(F)(F)F)ccc2Cl)ccc1OCC(=O)Nc1cccc(C(F)(F)F)c1 | inconclusive: 16.4 µM [activator, single point] | –
26 | CN1CCN(C2Cc3ccc(F)cc3Sc3cc(F)c(Cl)cc32)CC1 (stereo unspecified) | inconclusive: 29.1 µM [activator, single point] | –
27 | COCCNC(=O)/C(C#N)=C/c1cccc(/C=C(\C#N)C(=O)NCCOC)c1 | inconclusive: 5.8 µM [activator, full curve] | –
28 | O=C(NCc1cccnc1)c1ccccc1NS(=O)(=O)c1ccccc1 | inconclusive: 32.6 µM [activator, partial curve, poor fit] | –
29 | CCN1C(=O)[C@H]2[C@@H](c3ccc(-c4ccccc4)cc3)N3CCCC[C@@]3(C(=O)OC)[C@H]2C1=O | inconclusive: 1.84 µM [activator, partial curve, poor fit] | –
30 | COc1cc(C(=O)NC(=S)NCc2ccco2)cc(OC)c1OC | inconclusive: 16.4 µM [activator, single point] | –
31 | CCCNC(=O)C1CN(S(=O)(=O)c2ccccc2)CCN1S(=O)(=O)c1ccccc1 (stereo unspecified) | inconclusive: 29.1 µM [activator, single point] | –
32 | CCn1cc2nc(SCC(=O)Nc3ccc(OC)c(OC)c3)n(Cc3ccc(OC)cc3)c(=O)c2n1 | – | inactive: -8.25%
33 | COC(=O)c1sc2nc(CSc3ccc(Br)cc3)[nH]c(=O)c2c1C | – | inactive: -4.11%
34 | COc1cccc(C=O)c1OCCCOc1cccc2cccnc12 | inconclusive: 29.1 µM [activator, single point] | –
35 | O=C(Nc1ccc2oc(-c3ccccc3Cl)nc2c1)c1cncc(Br)c1 | inconclusive: 23.1 µM [activator, single point] | –
36 | NS(=O)(=O)c1cccc(NC(=O)c2cccc3c(Br)cccc23)c1 | – | inactive: -2.54%
37 | CN(C)S(=O)(=O)c1cccc(C(=O)Nc2cc3c(cc2C(=O)O)OCCCO3)c1 | – | inactive: 1.29%
38 | CCOC(=O)C(C)(C)N(Cc1cccc(C)c1)S(=O)(=O)c1ccc(Cl)c([N+](=O)[O-])c1 | inconclusive: 29.1 µM [activator, single point] | –
39 | Nc1nc(NCc2ccco2)nc(NC2CCCCC2)c1[N+](=O)[O-] | inconclusive: 2.59 µM [activator, single point] | –
40 | O=C1/C(=C\c2ccc3ccccc3c2)CCCc2ccccc21 | inconclusive: 16.4 µM [activator, single point] | –
41 | Cc1ccc(-c2nnn(CC(=O)N(Cc3ccco3)C(C(=O)NC(C)(C)C)c3ccc(C)o3)n2)o1 (stereo unspecified) | inconclusive: 29.1 µM [activator, single point] | –
42 | N/C(=N\OC(=O)c1ccc2c(c1)OCO2)c1ccc(Cl)cc1 | inconclusive: 23.1 µM [activator, single point] | –
43 | COc1ccc(C)cc1S(=O)(=O)N1CC(C)OC(C)C1 (stereo unspecified) | – | inconclusive: -26.2% [activator]
44 | CCC1(OC(=O)CN(C)C)C(=O)OCc2c1cc1n(c2=O)Cc2cc3c(N)cccc3nc2-1 (stereo unspecified) | inconclusive: 0.0651 µM [activator, full curve, poor fit] | –

Some of the entries above, set out differently.
Row	SMILES	Potency	re-replication activation
37	CN(C)S(=O)(=O)c1cccc(C(=O)Nc2cc3c(cc2C(=O)O)OCCCO3)c1	–	inactive: 1.29%
38	CCOC(=O)C(C)(C)N(Cc1cccc(C)c1)S(=O)(=O)c1ccc(Cl)c([N+](=O)[O-])c1	inconclusive: 29.1 µM [activator, single point]	–
39	Nc1nc(NCc2ccco2)nc(NC2CCCCC2)c1[N+](=O)[O-]	inconclusive: 2.59 µM [activator, single point]	–

(next part)

Row | SMILES | Potency | re-replication activation
45 | O=C(Nc1ccc(SC(F)F)cc1)c1ccc(F)cc1 | inconclusive: 0.103 µM [activator, full curve, poor fit] | –
46 | CC1(C)OC(=O)C(=Cc2ccc(-c3ccc(S(N)(=O)=O)cc3)o2)C(=O)O1 | inconclusive: 29.1 µM [activator, single point] | –
47 | COC(=O)c1ccc(NC(=O)c2nc(S(=O)(=O)Cc3cccc(C)c3)ncc2Cl)cc1 | inconclusive: 29.1 µM [activator, single point] | –
48 | O=C(Nc1nnc(-c2ccc(Br)cc2)o1)C1=COCCO1 | – | inactive: 0.488%
49 | CC(C)n1c(=S)[nH]c2c1c(=O)[nH]c(=O)n2C | – | inactive: -1.89%
50 | COc1ccccc1-c1c(C)nn2c(N3CCC(C)CC3)cc(C)nc12 | inconclusive: 29.1 µM [activator, single point] | –
51 | CCc1nnc(NS(=O)(=O)c2ccc(NC(=S)NC(=O)c3ccc(Br)cc3)cc2)s1 | – | inactive: -0.841%
52 | CCOc1ccccc1CNC(=O)C1CCN(c2nn3c(=O)cc(C)nc3s2)CC1 | inconclusive: 29.1 µM [activator, single point] | –
53 | CC(NCc1ccccc1O)C12CC3CC(CC(C3)C1)C2 (stereo unspecified) | inconclusive: 29.1 µM [activator, partial curve, poor fit] | –
54 | COC(=O)c1[nH]c2ccc(F)cc2c1NC(=O)Nc1ccc(OC)cc1 | – | inactive: 1.28%
55 | Cc1ccc2c(Cl)c(C(=O)Nc3ccc4c(c3)OCO4)sc2c1 | active: 20.6 µM | –
56 | COc1ccc(Cl)c(N2CCN(CCCNC(=O)Nc3ccc(C)cc3)CC2)c1 | inconclusive: 25.9 µM [activator, single point] | –
57 | CCn1cc(C(=O)NC(=S)Nc2sc3c(c2C(=O)OC)CCCCCC3)cn1 | inconclusive: 3.26 µM [activator, partial curve, poor fit] | –
58 | Cc1ccc2cc(NC(=O)c3cccc(F)c3)ccc2n1 | inconclusive: 18.4 µM [activator, single point] | –
59 | Cc1ccc(-c2nn(-c3ccccc3)cc2/C=N/NC(=O)c2ccncc2)o1 | inconclusive: 29.1 µM [activator, single point] | –
60 | O=C(CSc1ncnc2sc3c(c12)CCCC3)c1ccco1 | – | inactive: 14.2%
61 | CC1CN(Cc2nc3c(c(=O)[nH]c(=O)n3C)n2CCCc2ccccc2)CC(C)O1 (stereo unspecified) | – | inactive: -10.7%
62 | CCOc1ccc(/C(O)=C2/C(=O)C(=O)N(CCCN3CCOCC3)C2c2ccc(F)cc2)cc1C (stereo unspecified) | – | inactive: 2.26%
63 | Cc1cnc(Nc2nc3ccccc3o2)nc1C(=O)Nc1cccc(C(F)(F)F)c1 | inconclusive: 25.9 µM [activator, partial curve, poor fit] | –
64 | N#CC1CN(Cc2ccccc2)CN(Cc2ccccc2)C1 | inconclusive: 20.6 µM [activator, partial curve, poor fit] | –
65 | CCNC(=S)N/N=C(\C)c1cccc([N+](=O)[O-])c1 | – | inactive: 8.56%
66 | CCCNC(=O)C1(S(=O)(=O)c2ccccc2)CC=CC1 | – | inactive: 5.03%
